Results published in US20170369529A1 (Hoffmann-La Roche Inc., priority 2014, published 2017).

Assay: general procedure: Fmoc solid-phase peptide synthesis; Fmoc-Rink Amide MBHA resin; HBTU or DIC, with HOBT (embodiment)
Conditions: whole synthesis, scale 0.1 mmol, TFA salt

Q: Which results are given for “Fluo-Met-Ile-Ile-Leu-Ile-Ile-Gly-Ser-Thr-Ser-Arg-Asp-His-Met-Val-Leu-His-Glu-Tyr-Val-Asn-Ala-Ala-Gly-Ile-Thr-NH2 (MIILIIGSTSRDHMVLHEYVNAAGIT; N-terminal fluorescein, C-terminal amide; /note=“N-term Fluo”; /note=“C-term NH2”)”?
A: final HPLC purity (analytical HPLC (Agilent 1200), TFA buffer system): >=99%; crude mass: ˜190 mg
